Measurements taken from article PMC5821886.
No constants are given. Whether binding was seen depends on the method and setting. Binding can be weak; no strength is given.

Chains of the proteins cited; added tags and fusions are not shown.
UniProt K4BND8: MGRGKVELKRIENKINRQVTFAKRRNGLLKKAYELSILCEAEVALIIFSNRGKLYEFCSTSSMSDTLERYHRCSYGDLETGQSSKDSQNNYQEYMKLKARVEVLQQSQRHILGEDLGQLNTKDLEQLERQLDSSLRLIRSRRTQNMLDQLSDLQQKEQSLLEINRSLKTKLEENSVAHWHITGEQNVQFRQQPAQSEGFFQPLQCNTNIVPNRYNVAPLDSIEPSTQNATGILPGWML

Target: TAGL1 (TOMATO AGAMOUS LIKE1) (tomato) (UniProt Q8H281)
Experiment: two-hybrid; … GAL4 Two-Hybrid System III (Clontech); prey pGADT7-SlCMB1 in Y187 mated with baits in pGBKT7 in Y2HGold; diploids selected on DDO, then growth on QDO and blue colour on QDO/X (X-a-Gal); 30 °C, 3-5 d

SlCMB1 (from UniProt K4BND8 1-238)
binding: binds
